{"source": "patent US12419619B2", "about": "“Aspiration device” (YALE UNIVERSITY, priority 2016, dated 2025)", "system": "stem cells", "note": "“Also recorded” adds a separate entry of the source."}
{"smiles": "CCN(CC)CC(=O)Nc1c(C)cccc1C", "note": "[lidocaine]", "values": [{"measurement": "increase of stem cell yield compared to control", "setting": "lidocaine given through the novel dual-lumen BMA device at a site remote from the aspiration, preliminary data", "result": "more than 200%"}, {"measurement": "stem cell yield versus control", "setting": "lidocaine infused and aspirated through a standard/conventional BMA device", "result": "drastically reduced; also recorded: significantly lower than the control"}]}
